These are yes or no findings as the source states them, for the method shown. In cells and extracts the contact can be indirect. These calls come from enrichment with a bait or labelling near it, and not all partners need be listed. Where a sequence is shown, tags or fusion partners need not be part of it.
T1: Flag-hemagglutinin (HA)-tagged transglutaminase type 2 (human) (UniProt P21980)
T1 sequence: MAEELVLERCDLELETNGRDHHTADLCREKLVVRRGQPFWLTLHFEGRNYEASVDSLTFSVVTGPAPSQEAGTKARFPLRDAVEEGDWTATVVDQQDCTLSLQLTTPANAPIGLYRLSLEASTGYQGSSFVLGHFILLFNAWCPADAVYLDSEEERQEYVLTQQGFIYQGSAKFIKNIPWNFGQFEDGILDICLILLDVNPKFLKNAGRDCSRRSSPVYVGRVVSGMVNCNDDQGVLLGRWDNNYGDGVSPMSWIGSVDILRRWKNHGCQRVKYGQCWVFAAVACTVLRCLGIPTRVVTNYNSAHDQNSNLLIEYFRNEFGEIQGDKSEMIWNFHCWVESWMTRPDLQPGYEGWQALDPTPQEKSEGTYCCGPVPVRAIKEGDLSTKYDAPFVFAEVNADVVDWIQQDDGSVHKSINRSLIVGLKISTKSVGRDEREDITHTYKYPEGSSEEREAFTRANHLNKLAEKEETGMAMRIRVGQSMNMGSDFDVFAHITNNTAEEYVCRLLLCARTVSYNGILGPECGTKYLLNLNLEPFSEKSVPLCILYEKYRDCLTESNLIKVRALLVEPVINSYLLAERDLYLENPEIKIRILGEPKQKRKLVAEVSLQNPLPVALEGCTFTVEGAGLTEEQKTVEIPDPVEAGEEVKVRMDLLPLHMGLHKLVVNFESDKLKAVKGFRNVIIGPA

Amino acid sequences for entries named in this document (tags omitted). Residues count along the entry.
UniProt O95816: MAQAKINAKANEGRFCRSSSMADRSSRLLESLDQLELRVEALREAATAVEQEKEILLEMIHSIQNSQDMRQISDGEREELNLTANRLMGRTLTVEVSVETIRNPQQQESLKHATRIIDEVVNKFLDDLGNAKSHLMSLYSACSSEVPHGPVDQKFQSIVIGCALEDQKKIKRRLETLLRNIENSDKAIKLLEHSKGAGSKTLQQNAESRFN
UniProt P11021, residues 19-654: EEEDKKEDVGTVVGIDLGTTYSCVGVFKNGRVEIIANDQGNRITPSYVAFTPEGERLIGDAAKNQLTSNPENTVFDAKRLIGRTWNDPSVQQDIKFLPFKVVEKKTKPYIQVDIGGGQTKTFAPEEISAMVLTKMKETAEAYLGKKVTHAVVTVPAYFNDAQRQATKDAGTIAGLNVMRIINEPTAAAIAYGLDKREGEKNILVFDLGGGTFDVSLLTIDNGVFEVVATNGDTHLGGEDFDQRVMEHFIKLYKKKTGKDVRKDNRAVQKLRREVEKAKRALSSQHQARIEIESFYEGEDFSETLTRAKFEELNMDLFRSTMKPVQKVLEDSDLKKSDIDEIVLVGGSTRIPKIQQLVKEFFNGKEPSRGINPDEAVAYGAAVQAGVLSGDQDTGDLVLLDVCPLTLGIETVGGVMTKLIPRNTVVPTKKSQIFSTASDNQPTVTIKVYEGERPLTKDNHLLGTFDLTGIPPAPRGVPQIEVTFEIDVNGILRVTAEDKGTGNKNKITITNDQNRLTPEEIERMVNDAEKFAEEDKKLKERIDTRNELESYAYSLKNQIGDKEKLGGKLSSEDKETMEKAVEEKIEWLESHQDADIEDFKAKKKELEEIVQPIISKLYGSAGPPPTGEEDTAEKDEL
UniProt P68104: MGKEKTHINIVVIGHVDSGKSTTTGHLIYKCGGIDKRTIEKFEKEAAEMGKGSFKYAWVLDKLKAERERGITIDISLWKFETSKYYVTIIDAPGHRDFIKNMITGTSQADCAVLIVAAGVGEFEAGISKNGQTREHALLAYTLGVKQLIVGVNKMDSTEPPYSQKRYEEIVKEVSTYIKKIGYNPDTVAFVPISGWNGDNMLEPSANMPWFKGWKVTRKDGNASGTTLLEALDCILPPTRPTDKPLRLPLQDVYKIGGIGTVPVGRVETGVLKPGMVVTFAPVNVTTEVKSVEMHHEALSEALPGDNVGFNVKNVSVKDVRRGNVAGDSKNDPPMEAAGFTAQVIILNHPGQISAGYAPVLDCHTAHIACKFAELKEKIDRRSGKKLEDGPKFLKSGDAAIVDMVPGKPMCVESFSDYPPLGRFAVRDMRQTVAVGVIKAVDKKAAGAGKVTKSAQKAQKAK
UniProt P11142: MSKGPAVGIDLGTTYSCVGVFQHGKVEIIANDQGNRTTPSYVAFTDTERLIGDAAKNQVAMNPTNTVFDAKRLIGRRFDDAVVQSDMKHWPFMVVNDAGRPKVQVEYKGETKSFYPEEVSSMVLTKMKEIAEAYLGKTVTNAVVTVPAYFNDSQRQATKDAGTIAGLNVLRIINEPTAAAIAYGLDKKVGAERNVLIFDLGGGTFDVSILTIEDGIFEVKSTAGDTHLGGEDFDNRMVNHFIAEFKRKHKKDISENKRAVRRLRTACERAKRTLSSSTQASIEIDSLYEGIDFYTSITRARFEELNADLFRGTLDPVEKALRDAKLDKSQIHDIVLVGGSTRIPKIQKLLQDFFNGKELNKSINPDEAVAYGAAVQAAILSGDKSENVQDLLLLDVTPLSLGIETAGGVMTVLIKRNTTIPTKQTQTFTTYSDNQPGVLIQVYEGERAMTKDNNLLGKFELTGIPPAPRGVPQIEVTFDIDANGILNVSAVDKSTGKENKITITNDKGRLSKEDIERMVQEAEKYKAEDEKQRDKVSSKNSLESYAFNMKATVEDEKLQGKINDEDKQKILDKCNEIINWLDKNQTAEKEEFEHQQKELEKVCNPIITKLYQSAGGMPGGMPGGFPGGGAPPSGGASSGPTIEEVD
UniProt P25705, residues 44-553: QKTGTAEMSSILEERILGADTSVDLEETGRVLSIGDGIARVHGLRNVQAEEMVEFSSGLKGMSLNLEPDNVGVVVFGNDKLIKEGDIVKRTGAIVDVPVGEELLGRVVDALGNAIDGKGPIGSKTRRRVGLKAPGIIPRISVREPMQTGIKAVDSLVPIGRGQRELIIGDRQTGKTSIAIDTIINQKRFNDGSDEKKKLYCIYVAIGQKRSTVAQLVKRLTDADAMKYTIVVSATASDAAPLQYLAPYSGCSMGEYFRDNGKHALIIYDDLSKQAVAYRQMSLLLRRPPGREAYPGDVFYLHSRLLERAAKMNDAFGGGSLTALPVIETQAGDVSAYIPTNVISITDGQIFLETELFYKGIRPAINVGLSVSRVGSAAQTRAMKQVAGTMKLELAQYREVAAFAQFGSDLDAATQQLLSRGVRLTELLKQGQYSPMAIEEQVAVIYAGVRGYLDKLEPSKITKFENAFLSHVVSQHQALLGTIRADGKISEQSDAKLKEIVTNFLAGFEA
UniProt Q99816: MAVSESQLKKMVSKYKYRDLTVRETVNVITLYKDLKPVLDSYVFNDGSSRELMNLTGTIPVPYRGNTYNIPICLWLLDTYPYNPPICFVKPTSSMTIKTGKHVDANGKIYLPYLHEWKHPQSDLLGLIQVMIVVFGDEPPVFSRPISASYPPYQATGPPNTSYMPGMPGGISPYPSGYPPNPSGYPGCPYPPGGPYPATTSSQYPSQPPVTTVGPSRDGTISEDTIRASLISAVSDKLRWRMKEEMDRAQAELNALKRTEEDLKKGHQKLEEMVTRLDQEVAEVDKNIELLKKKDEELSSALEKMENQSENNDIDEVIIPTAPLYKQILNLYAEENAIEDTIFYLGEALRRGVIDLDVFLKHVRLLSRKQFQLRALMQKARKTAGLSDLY
UniProt Q9NY65: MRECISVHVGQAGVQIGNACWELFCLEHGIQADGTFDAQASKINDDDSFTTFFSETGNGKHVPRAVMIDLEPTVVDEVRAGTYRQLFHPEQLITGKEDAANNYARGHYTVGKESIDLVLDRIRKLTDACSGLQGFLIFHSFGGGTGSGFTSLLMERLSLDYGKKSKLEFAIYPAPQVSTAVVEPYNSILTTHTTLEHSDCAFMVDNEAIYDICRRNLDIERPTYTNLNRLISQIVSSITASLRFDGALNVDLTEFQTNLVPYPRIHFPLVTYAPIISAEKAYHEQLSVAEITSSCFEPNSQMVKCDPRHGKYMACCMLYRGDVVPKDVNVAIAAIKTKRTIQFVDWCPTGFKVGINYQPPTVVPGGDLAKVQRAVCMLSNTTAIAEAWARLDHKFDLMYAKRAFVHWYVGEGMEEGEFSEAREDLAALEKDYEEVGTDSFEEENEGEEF
UniProt P07437: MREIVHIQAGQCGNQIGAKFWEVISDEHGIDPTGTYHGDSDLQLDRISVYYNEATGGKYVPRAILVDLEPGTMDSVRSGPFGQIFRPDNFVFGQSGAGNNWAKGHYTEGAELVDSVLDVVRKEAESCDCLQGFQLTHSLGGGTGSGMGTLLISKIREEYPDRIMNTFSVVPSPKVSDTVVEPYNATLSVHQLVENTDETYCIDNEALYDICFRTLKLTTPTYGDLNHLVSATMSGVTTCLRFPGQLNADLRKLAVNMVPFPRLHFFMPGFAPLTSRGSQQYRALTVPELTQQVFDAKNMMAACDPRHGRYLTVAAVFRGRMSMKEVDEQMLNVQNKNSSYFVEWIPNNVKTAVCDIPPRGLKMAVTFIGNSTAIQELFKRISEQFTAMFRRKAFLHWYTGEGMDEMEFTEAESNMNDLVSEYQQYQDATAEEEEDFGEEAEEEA
UniProt Q9BQE3: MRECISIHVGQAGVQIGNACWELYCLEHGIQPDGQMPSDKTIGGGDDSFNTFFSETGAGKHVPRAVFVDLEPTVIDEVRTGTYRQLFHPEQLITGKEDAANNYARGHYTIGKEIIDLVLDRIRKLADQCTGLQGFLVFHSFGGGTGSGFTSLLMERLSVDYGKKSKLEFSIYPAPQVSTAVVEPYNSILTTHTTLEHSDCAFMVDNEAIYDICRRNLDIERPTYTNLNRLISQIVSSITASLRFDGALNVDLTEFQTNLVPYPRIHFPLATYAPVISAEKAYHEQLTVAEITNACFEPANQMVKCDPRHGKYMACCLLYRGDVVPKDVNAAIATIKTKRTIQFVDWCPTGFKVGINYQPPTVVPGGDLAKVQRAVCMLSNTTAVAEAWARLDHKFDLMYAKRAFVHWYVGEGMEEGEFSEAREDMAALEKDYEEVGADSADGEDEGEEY
UniProt P17066: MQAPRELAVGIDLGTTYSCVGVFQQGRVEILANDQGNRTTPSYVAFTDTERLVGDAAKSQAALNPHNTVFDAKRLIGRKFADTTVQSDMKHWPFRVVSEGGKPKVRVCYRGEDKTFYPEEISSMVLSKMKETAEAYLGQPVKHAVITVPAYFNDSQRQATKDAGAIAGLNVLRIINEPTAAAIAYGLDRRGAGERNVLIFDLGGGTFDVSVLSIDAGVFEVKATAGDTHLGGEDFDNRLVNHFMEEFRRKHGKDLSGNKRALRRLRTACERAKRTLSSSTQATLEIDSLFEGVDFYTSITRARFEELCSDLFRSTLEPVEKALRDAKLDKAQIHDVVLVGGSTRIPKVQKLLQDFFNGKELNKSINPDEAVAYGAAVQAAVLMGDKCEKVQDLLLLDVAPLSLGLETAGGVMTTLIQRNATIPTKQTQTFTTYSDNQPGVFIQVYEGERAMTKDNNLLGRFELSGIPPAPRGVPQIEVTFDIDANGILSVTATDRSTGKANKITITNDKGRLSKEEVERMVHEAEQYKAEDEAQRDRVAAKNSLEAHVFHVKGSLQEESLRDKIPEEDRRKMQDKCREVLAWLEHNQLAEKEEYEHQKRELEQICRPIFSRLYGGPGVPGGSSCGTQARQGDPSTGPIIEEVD
UniProt Q9NR12: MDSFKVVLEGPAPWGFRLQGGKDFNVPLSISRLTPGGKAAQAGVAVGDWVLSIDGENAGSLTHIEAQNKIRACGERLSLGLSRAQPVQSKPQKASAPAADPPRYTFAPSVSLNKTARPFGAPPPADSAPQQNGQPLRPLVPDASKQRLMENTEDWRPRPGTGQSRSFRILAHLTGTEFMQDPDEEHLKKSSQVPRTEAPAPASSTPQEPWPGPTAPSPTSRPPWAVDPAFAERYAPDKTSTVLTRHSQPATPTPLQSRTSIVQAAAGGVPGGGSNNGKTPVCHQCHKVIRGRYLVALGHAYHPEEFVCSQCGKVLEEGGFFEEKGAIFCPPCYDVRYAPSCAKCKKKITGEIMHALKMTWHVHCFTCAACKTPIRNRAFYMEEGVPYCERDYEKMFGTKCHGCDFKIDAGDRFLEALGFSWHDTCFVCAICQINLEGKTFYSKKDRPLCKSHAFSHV
UniProt P04406: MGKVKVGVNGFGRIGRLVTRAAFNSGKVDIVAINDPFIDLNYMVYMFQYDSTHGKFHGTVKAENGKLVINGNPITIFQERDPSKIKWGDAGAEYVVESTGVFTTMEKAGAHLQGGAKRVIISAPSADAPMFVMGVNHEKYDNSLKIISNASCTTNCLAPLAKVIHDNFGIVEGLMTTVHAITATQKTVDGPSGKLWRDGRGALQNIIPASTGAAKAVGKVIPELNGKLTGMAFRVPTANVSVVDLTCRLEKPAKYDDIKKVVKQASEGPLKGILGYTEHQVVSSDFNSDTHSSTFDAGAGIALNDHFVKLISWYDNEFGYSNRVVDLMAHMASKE
UniProt P38646, residues 47-679: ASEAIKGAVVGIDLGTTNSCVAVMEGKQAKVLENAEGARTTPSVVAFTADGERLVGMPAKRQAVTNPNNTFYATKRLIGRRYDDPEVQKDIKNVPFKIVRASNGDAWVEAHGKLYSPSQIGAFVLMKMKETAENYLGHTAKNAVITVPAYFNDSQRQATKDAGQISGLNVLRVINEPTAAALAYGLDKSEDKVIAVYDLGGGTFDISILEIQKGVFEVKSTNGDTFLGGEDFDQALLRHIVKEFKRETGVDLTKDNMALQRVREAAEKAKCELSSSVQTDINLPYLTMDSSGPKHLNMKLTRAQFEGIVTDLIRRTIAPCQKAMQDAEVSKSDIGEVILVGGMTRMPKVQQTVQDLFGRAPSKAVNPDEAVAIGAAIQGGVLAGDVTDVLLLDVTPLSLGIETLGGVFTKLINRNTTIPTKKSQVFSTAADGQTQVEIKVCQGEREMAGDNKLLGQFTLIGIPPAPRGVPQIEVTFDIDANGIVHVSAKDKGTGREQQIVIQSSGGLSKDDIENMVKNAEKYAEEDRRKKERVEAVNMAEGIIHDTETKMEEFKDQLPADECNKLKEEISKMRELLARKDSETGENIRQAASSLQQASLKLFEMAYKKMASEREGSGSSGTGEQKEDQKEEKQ
UniProt P12235: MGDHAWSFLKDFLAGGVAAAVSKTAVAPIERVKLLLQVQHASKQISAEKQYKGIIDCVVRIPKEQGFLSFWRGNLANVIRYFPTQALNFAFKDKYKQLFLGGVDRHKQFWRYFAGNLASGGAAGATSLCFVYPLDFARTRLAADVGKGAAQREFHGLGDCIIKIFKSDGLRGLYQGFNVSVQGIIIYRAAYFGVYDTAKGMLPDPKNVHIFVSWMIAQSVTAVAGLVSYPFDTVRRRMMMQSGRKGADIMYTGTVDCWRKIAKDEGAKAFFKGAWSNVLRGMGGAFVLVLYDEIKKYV

B1: solute carrier family 25 (mitochondrial carrier; adenine nucleotide translocator), member 6 [Homo sapiens] (protein, UniProt P12236 1-298)
chain: MTEQAISFAKDFLAGGIAAAISKTAVAPIERVKLLLQVQHASKQIAADKQYKGIVDCIVRIPKEQGVLSFWRGNLANVIRYFPTQALNFAFKDKYKQIFLGGVDKHTQFWRYFAGNLASGGAAGATSLCFVYPLDFARTRLAADVGKSGTEREFRGLGDCLVKITKSDGIRGLYQGFSVSVQGIIIYRAAYFGVYDTAKGMLPDPKNTHIVVSWMIAQTVTAVAGVVSYPFDTVRRRMMMQSGRKGADIMYTGTVDCWRKIFRDEGGKAFFKGAWSNVLRGMGGAFVLVLYDELKKVI
B2: DnaJ (Hsp40) homolog, subfamily C, member 7 [Homo sapiens] (protein, UniProt Q99615 1-494)
chain: MAAAAECDVVMAATEPELLDDQEAKREAETFKEQGNAYYAKKDYNEAYNYYTKAIDMCPKNASYYGNRAATLMMLGRFREALGDAQQSVRLDDSFVRGHLREGKCHLSLGNAMAACRSFQRALELDHKNAQAQQEFKNANAVMEYEKIAETDFEKRDFRKVVFCMDRALEFAPACHRFKILKAECLAMLGRYPEAQSVASDILRMDSTNADALYVRGLCLYYEDCIEKAVQFFVQALRMAPDHEKACIACRNAKALKAKKEDGNKAFKEGNYKLAYELYTEALGIDPNNIKTNAKLYCNRGTVNSKLRKLDDAIEDCTNAVKLDDTYIKAYLRRAQCYMDTEQYEEAVRDYEKVYQTEKTKEHKQLLKNAQLELKKSKRKDYYKILGVDKNASEDEIKKAYRKRALMHHPDRHSGASAEVQKEEEKKFKEVGEAFTILSDPKKKTRYDSGQDLDEEGMNMGDFDPNNIFKAFFGGPGGFSFEASGPGNFFFQFG

Target: T1, Flag-hemagglutinin (HA)-tagged transglutaminase type 2 (human)
Test: affinity purification with mass spectrometry; tandem affinity purification (Flag agarose, Flag peptide elution, then HA agarose, glycine elution) of Flag-HA-TG2 from 2fTGH lysates (10 mM Tris, 50 mM NaCl, 10% glycerol, 0.5% NP40); cells at steady state or starved for 2 h (autophagy); HPLC and MALDI TOF/TOF

Molecule	binding
ADP.ATP translocase (human (endogenous in 2fTGH))	binds
BAG2 [Homo sapiens] (from UniProt O95816 1-211)	binds
BiP protein [Homo sapiens] (from UniProt P11021 19-654)	binds
DnaJ protein homolog [Homo sapiens] (from UniProt P31689 1-397)	binds
EEF1A1 protein [Homo sapiens] (from UniProt P68104 1-462)	binds
Hsc70 (from UniProt P11142 1-646)	binds
Similar to ATP synthase, H+ transporting, mitochondrial F1 complex, alpha subunit, isoform 1 (from UniProt P25705 44-553)	binds
TSG101 (from UniProt Q99816 1-390)	binds
TUBA8 [Homo sapiens] (from UniProt Q9NY65 1-449)	binds
TUBB [Homo sapiens] (from UniProt P07437 1-444)	binds
Tubulin alpha 6 [Homo sapiens] (from UniProt Q9BQE3 1-449)	binds
Tubulin, beta 2 [Homo sapiens] (human)	binds
beta-tubulin 4Q [Homo sapiens] (human)	binds
dnaK-type molecular chaperone HSPA6 - human (from UniProt P17066 1-643)	binds
enigma - human (from UniProt Q9NR12 1-457)	binds
enigma protein isoform 1 [Homo sapiens] (from UniProt Q9NR12 1-457)	binds
glyceraldehyde-3-phosphate dehydrogenase [Homo sapiens] (from UniProt P04406 1-335) (enzyme)	binds
heat shock 70kDa protein 9B precursor [Homo sapiens] (from UniProt P38646 47-679)	binds
solute carrier family 25 (mitochondrial carrier; adenine nucleotide translocator), member 4 [Homo sapiens] (from UniProt P12235 1-298)	binds
stress-induced-phosphoprotein 1 (Hsp70/Hsp90-organizing protein) [Homo sapiens] (from UniProt P31948 1-543)	binds
tubulin alpha-1 chain - human	binds
tubulin beta (human (endogenous in 2fTGH))	binds
tubulin beta chain - human	binds
B1	binds
B2	binds

— PMC4792602
